Structures can show the parent of a compound that is named as a salt.
Test: Aerosol performance, Next Generation Impactor (NGI) with powder deaggregator and RS01 capsule piercing mechanism
Assay type: physicochemical
Conditions: pure drug (100% API)
From the text: There are several inertia sampling apparatuses that can be used to assess aerosol performance of dry powder formulations. (<601> Aerosols, Nasal Sprays, Metered-Dose Inhalers, and Dry Powder Inhalers Monograph, in USP 29-NF 24 The United States Pharmacopoeia and The National Formulary: The Official Compendia of Standards. 2006, The United States Pharmacopeial Convention, Inc.: Rockville, Md. p. 2617-2636 (“USP<601>”).) These apparatus classify aerosol particles on the basis of the particles' aerodynamic diameter. Each stage of the impactor includes a single or series of nozzles with specific cutoff size. Particles are entrained into the apparatus. […] The aerodynamic size distribution of API can be assessed by collecting the deposited API mass and the ED %, RF %, FPF % and MMAD (μm) can be calculated from the API deposition pattern. The emitted dose fraction (ED (%); Eq. 4) is determined as the percentage powder mass emitted from the initial dosing chamber/capsule relative to the total dose in capsules (nominal dose) (TD). […] Fine particle fraction (FPF (%); Eq. 5) is expressed as a percentage of fine particle dose (FPD) below a certain aerodynamic cutoff size to ED. […]

| Structure (SMILES) | % Recvy (10 mg dose) [%] | % Recvy (3 mg dose) [%] |
| --- | --- | --- |
| CCCc1nc(C)c2c(=O)[nH]c(-c3cc(S(=O)(=O)N4CCN(CC)CC4)ccc3OCC)nn12 [VarBase, 2-[2-ethoxy-5-(4-ethylpiperazin-1-yl)sulfonylphenyl]-5-methyl-7-propyl-1H-imidazo[5,1-i][1,2,4]triazin-4-one] | 115.2 | – |
| CCCc1nc(C)c2c(=O)[nH]c(-c3cc(S(=O)(=O)N4CCN(CC)CC4)ccc3OCC)nn12 [Var(HCl)2•xH2O (rehydrated), dihydrochloride hydrate] | – | 100.1 |

— patent publication US11806314B2, “PDE5 inhibitor powder formulations and methods relating thereto” (Respira Therapeutics, Inc., priority 2013, dated 2023)
